For seven molecules, binding results are on record in paper PMC4879639.

The chains behind the UniProt entries cited, without tags or fusion partners. Residues count along the entry.
UniProt Q6PHU5, residues 74-754: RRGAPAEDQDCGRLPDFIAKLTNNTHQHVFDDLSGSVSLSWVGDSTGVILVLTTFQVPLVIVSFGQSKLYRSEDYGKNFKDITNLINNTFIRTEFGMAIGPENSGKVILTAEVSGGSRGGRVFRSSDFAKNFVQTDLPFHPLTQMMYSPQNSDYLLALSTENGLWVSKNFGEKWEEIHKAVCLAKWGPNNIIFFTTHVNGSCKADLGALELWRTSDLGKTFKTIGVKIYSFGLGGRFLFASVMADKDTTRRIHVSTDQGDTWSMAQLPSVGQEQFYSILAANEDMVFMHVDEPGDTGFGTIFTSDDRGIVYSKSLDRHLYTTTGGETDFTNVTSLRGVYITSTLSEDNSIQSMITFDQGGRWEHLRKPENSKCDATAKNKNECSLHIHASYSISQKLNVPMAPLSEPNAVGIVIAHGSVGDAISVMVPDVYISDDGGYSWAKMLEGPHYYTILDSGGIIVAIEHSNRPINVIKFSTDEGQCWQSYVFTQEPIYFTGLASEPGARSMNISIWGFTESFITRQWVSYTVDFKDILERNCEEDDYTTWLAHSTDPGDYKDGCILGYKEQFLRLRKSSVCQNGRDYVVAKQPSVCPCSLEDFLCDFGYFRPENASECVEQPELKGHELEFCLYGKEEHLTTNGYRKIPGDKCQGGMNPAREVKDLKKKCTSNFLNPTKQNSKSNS

Sequences and labels used below:
B1: recombinant IFN-γ (ligand, UniProt P01580 23-155)
chain: HGTVIESLESLNNYFNSSGIDVEEKSLFLDIWRNWQKDGDMKILQSQIISFYLRLFEVLKDNQAISNNISVIESHLITTFFSNSKAKKDAFMSIAKFEVNNPQVQRQAFNELIRVVHQLLPESSLRKRKRSRC
B2: recombinant IL-10 (ligand, UniProt P18893 19-178)
chain: SRGQYSREDNNCTHFPVGQSHMLLELRTAFSQVKTFFQTKDQLDNILLTDSLMQDFKGYLGCQALSEMIQFYLVEVMPQAEKHGPEIKEHLNSLGEKLKTLRMRLRRCHRFLPCENKSKAVEQVKSDFNKLQDQGVYKAMNEFDIFINCIEAYMMIKMKS
B3: GST-fused mouse IFN-α (ligand, UniProt P01573 24-190)
chain: CDLPHTYNLRNKRALKVLAQMRRLPFLSCLKDRQDFGFPLEKVDNQQIQKAQAIPVLRDLTQQTLNLFTSKASSAAWNATLLDSFCNDLHQQLNDLQTCLMQQVGVQEPPLTQEDALLAVRKYFHRITVYLREKKHSPCAWEVVRAEVWRALSSSVNLLPRLSEEKE
B4: recombinant IL-1β (ligand, UniProt P10749 118-269)
chain: VPIRQLHYRLRDEQQKSLVLSDPYELKALHLNGQNINQQVIFSMSFVQGEPSNDKIPVALGLKGKNLYLSCVMKDGTPTLQLESVDPKQYPKKKMEKRFVFNKIEVKSKVEFESAEFPNWYISTSQAEHKPVFLGNNSGQDIIDFTMESVSS
B5: recombinant IL-12 (complex, UniProt P43431 23-215; P43432 23-335)
chain 1: RVIPVSGPARCLSQSRNLLKTTDDMVKTAREKLKHYSCTAEDIDHEDITRDQTSTLKTCLPLELHKNESCLATRETSSTTRGSCLPPQKTSLMMTLCLGSIYEDLKMYQTEFQAINAALQNHNHQQIILDKGMLVAIDELMQSLNHNGETLRQKPPVGEADPYRVKMKLCILLHAFSTRVVTINRVMGYLSSA
chain 2: MWELEKDVYVVEVDWTPDAPGETVNLTCDTPEEDDITWTSDQRHGVIGSGKTLTITVKEFLDAGQYTCHKGGETLSHSHLLLHKKENGIWSTEILKNFKNKTFLKCEAPNYSGRFTCSWLVQRNMDLKFNIKSSSSSPDSRAVTCGMASLSAEKVTLDQRDYEKYSVSCQEDVTCPTAEETLPIELALEARQQNKYENYSTSFFIRDIIKPDPPKNLQMKPLKNSQVEVSWEYPDSWSTPHSYFSLKFFVRIQRKKEKMKETEEGCNQKGAFLVEKTSTEVQCKGGNVCVQAQDRYYNSSCSKWACVPCRVRS
B6: recombinant IL-17A (ligand, UniProt Q62386 26-158)
chain: AAIIPQSSACPNTEAKDFLQNVKVNLKVFNSLGAKVSSRRPSDYLNRSTSPWTLHRNEDPDRYPSVIWEAQCRHQRCVNAEGKLDHHMNSVLIQQEILVLKREPESCPFTFRVEKMLVGVGCTCVASIVRQAA
B7: recombinant IL-6 (ligand, UniProt P08505 25-211)
chain: FPTSQVRRGDFTEDTTPNRPVYTTSQVGGLITHVLWEIVEMRKELCNGNSDCMNNDDALAENNLKLPEIQRNDGCYQTGYNQEICLLKISSGLLEYHSYLEYMKNNLKDNKKDKARVLQRDTETLIHIFNQEVKDLHKIVLPTPISNALLTDKLESQKEWLRTKTIQFILKSLEEFLKVTLRSTRQT

These are yes or no findings as the source states them, for the method shown. Some results given as binding are weak or reduced against the parent protein; the word gives no strength. Sequences can lack the tags named with a protein.

The target in the assay is recombinant mouse sortilin (mouse) (UniProt Q6PHU5). In words: SPR; recombinant sortilin immobilised; cytokines flowed at various concentrations; Biacore X; curves after subtraction of binding to a BSA-coated flow cell; kinetic parameters by BIAevaluation software; both purified. Background: Surface plasmon resonance follows binding to a sensor surface in real time, without labels.
B1: the binding entry is “binds”.

On to B2, for which the binding result is “binds”.

As for B3, the binding entry was “binds”.

For B4, the binding result is listed as “no binding”.

Turning to B5, the binding result is listed as “binds”.

Regarding B6, the binding result is recorded as “binds”.

In the case of B7, the binding result is reported as “binds”.
